# PubChem BioAssay AID1259298, Sanger Institute – 2017
# Assay: 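Kinases whose loss strengthens killing by BYL719, cetuximab or trametinib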 (primary screen)
# System: HT55 human colorectal cancer cell line
# Reagents: siRNA pool against human genes
# Conditions: anchor drug BYL719 1 µM, cetuximab 5 µg/ml or trametinib 10 nM, or DMSO vehicle alone
# Detection: 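Replicate-averaged viability versus wells of non-targeting pool; knock-down-only robust z-score; per-drug synergy score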
# Scale: robust z-score, knock-down alone: higher = more cells remaining; low means essential gene; viability vs control pool, no drug: higher = more viable cells; synergy score with BYL719 and synergy score with cetuximab: higher = stronger synthetic lethality with the drug
# Rule for the call: 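Essential when the robust z-score for knock-down alone with DMSO is below -3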
# Meaning of the calls: active = essential (knock-down alone); inactive = no change alone
# This is one part, drawn at random, of 794 reagents. 20 of all reagents (2.5%) count as active. 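Calls rest only on the knock-down-alone score; drug synergy scores played no part in them.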 Viability is capped at 1. Further read-outs or replicates are left out here. The record does not give: the amount of reagent, the time to read-out.
gene knocked down,"robust z-score, knock-down alone","viability vs control pool, no drug (fraction)",synergy score with BYL719,synergy score with cetuximab,Call
IP6K1,0.58,1,-0.247,-0.0709,inactive
ITPK1,0.58,1,-0.222,-0.19,inactive
EFNA3,0.348,0.982,-0.135,-0.226,inactive
EIF2AK1,0.58,1,-0.0481,-0.211,inactive
HIPK1,0.58,1,-0.148,-0.124,inactive
AKAP9,-0.779,0.894,-0.171,-0.0482,inactive
MYLK,0.303,0.978,-0.222,-0.117,inactive
MARK4,-0.389,0.924,-0.113,0.0151,inactive
BMAL1,-3.86,0.653,-0.186,-0.217,active
XYLB,-0.796,0.892,-0.167,-0.000142,inactive
CRIM1,-0.0781,0.949,-0.118,-0.173,inactive
FGFR1,0.58,1,-0.272,-0.211,inactive
STK25,0.58,1,-0.245,-0.12,inactive
WIPF1,-2.01,0.798,-0.104,-0.0468,inactive
PRP4K,-0.0487,0.951,-0.0459,-0.0851,inactive
ADCK5,0.0538,0.959,-0.231,-0.087,inactive
PHKA2,0.58,1,-0.0891,-0.0611,inactive
ALK,0.559,0.998,-0.151,-0.213,inactive
NTRK2,0.304,0.978,-0.288,-0.125,inactive
BRAF,0.00115,0.955,-0.16,0.0493,inactive
DYRK3,0.58,1,-0.272,-0.196,inactive
GUCY2EP,-0.182,0.94,-0.0656,0.0875,inactive
PIP5KL1,0.58,1,-0.143,-0.211,inactive
PNKP,0.58,1,-0.272,-0.111,inactive
AKT2,-0.247,0.935,0.0119,-0.0981,inactive
NRAS,0.58,1,-0.272,-0.199,inactive
DAPK3,-0.478,0.917,0.0499,-0.156,inactive

Part of the list above, limited to “synergy score with BYL719”:
IP6K1	-0.247
ITPK1	-0.222
EFNA3	-0.135
EIF2AK1	-0.0481
HIPK1	-0.148
AKAP9	-0.171
MYLK	-0.222
MARK4	-0.113

Further records:
gene knocked down,"robust z-score, knock-down alone","viability vs control pool, no drug (fraction)",synergy score with BYL719,synergy score with cetuximab,Call
PAK2,0.454,0.99,-0.0595,-0.111,inactive
DLG2,0.529,0.996,-0.275,-0.00643,inactive
PRKCA,-1.69,0.823,0.0264,-0.132,inactive
PFKFB1,0.58,1,-0.16,0.0576,inactive
PRPS1L1,0.185,0.969,-0.097,-0.146,inactive
ACVR1B,0.58,1,-0.215,-0.0997,inactive
ROCK2,-0.0478,0.951,-0.0925,-0.205,inactive
MAP2K4,-0.515,0.914,-0.155,-0.124,inactive
RPS6KB1,-0.703,0.9,-0.313,-0.157,inactive
RIOK2,0.58,1,-0.161,-0.101,inactive
SPHK2,-0.636,0.905,-0.0697,-0.0627,inactive
PDIK1L,0.562,0.999,-0.173,-0.0704,inactive
MELK,0.58,1,-0.0642,-0.126,inactive
MSR1,0.574,1,-0.055,0.009,inactive
IGF2R,0.58,1,-0.246,-0.211,inactive
RPS6KB2,0.58,1,-0.0552,-0.167,inactive
KIT,0.58,1,-0.211,0.0753,inactive
STK17A,0.252,0.974,-0.246,-0.0926,inactive
TNIK,0.58,1,-0.098,-0.211,inactive
RPS6KA2,-2.42,0.766,-0.0691,0.0972,inactive
CHD4,-3.7,0.666,-0.0677,0.0184,active
ERBB4,0.58,1,-0.236,-0.175,inactive
DCLK1,-0.203,0.939,-0.215,-0.157,inactive
